According to PMC8858573:
These are yes or no findings as the source states them, for the method shown. In cells and extracts the contact can be indirect. Some entries that bind do so weakly or less than the wild type.

Target: hippocalcin (HPCA) (mouse (endogenous in mouse brain cerebrum and in BV2 cells)) (UniProt P84075)
Assay: co-IP; lysates of BV2 cells treated with Eth or OBG; HPCA complex pulled down with anti-HPCA antibody (1 mg mL^-1); dectin-1 and Rab11a probed by western blot

binding: binds
B1: dectin-1 (receptor, UniProt Q6QLQ4 1-244)
chain: MKYHSHIENLDEDGYTQLDFSTQDIHKRPRGSEKGSQAPSSPWRPIAVGLGILCFVVVVVAAVLGALGEYGHNSGRNPEEKDNFLSRNKENHKPTESSLDEKVAPSKASQTTGGFSQPCLPNWIMHGKSCYLFSFSGNSWYGSKRHCSQLGAHLLKIDNSKEFEFIESQTSSHRINAFWIGLSRNQSEGPWFWEDGSAFFPNSFQVRNTAPQESLLHNCVWIHGSEVYNQICNTSSYSICEKEL
